Assay results from US20240238256A1, “NITAZOXANIDE IN THE TREATMENT OF SEPSIS” (GENFIT, priority 2021, published 2024).
At least one compound was matched to its structure with a doubt left.

Test system: polymicrobial sepsis induced by CLP surgery
Test: CLP-induced sepsis, survival and welfare scoring, NTZ before/after or only after surgery (Example 5)
Format: in vivo, C57BL6J mice
Details: NTZ QD T+3.5 h treatment, 4 days following sepsis induction
Description: Polymicrobial sepsis was induced by CLP surgery in C57BL6J mice, and NTZ was prepared and administrated per os, as described previously. […]
During the 6 days following the surgery, treatments with NTZ were made twice daily at 9 am and 5 pm at the dose of 100 mg/kg/day (p.o. BID) per mouse. Control mice received vehicle the same way to avoid any deviations between control and treated mice.

CC(=O)Oc1ccccc1C(=O)Nc1ncc([N+](=O)[O-])s1 [NTZ, [2-[(5-nitro-1,3-thiazol-2-yl)carbamoyl]phenyl]ethanoate]
welfare scoring (severity of sepsis, scale 0 to 3): improved scores for all observed criteria
